Assay [1] has as its target T1, Flag-hCRY2 (human) (UniProt Q49AN0).
T1 sequence (looked up): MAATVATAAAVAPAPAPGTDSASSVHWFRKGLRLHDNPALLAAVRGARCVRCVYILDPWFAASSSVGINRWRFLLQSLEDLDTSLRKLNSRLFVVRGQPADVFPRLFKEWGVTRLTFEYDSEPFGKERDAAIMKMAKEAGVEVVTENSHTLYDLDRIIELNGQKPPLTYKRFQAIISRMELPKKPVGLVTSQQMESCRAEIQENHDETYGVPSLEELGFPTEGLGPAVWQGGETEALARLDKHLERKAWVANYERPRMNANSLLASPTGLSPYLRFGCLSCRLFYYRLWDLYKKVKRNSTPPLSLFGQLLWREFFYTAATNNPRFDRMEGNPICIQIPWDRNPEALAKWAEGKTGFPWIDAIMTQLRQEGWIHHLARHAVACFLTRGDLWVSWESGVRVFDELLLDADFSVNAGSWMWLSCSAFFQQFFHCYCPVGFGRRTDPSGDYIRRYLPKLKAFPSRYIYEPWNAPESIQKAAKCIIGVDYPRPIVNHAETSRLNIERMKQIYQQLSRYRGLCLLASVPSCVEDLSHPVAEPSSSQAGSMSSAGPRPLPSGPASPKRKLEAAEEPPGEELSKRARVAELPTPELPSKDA
Description: co-IP with anti-Flag beads, HEK293T cells (FIG. 11).

Assay [2] addresses T1, Flag-hCRY2 (human). The experiment in a line: co-IP with anti-Flag beads, HEK293T cells co-expressing Flag-hCRY, Myc-hCRY and GFP-BIC1 or GFP.
The target in assay [3] is T1, Flag-hCRY2 (human). Description: co-IP with anti-Flag beads, HEK293T cells co-expressing Flag-hCRY, Myc-hCRY and GFP-BIC1 or GFP (FIG. 11).
Assay [4] has as its target human cryptochrome 2 (hCRY2) (human) (UniProt Q49AN0). Description: co-IP, HEK293T cells, control experiment.
Assay [5] shares this target. The experiment in a line: co-IP (Flag-CRY with Myc-CRY) and qCo-IP (FLUC-CRY with REN-CRY) in HEK293T cells, blue light against dark (FIG. 10).

Data on two molecules can be found in patent US20190300875A1.

No constants are given. Whether binding was seen depends on the method and setting. Binding seen in cells or lysates may run through a third protein. Some entries that bind do so weakly or less than the wild type. For some assays here: Tags and fused reporters may be left off the sequences shown.

B1: GFP-BIC1 (protein, not shown: large carriers)
chain: MMNIDDTTSPMAHPIGPSQPPSDQTKQDPPSLPQEAASSVSADKKDLALLEEKPKQSQEEDRVDTGRERLKKHRREIAGRVWIPEIWGQEELLKDWIDCSTFDTCLVPAGISSARTALVEEARRAASASGGLHNRCLILR
Consider B1, for which the binding entry in assay [1], in assay [2] and in assay [3] was “binds” throughout.

B2: human cryptochrome 2 (hCRY2) (protein, UniProt Q49AN0 1-593, looked up)
chain: T1 sequence (looked up)
B2: the binding entry in assay [4] and in assay [5] was “binds” each time.
